PubChem BioAssay AID652259 – Drosophila RNAi Screening Center, 2013
Screen: 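Identify new Wingless signalling regulators in fly cells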 (primary screen). Cell system: Drosophila clone 8 imaginal disc epithelial cells. Reagents: long dsRNA against Drosophila genes. Treatment: pathway stimulated by co-transfected Wingless expression plasmid. Measured: 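Firefly luciferase from a tcf-site Wingless reporter, measured alongside co-transfected Renilla luciferase that tracks transfection; pathway stimulated by a Wingless plasmid; the firefly-to-Renilla ratio is not deposited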. Scale: firefly reporter light: higher = more Wg reporter light, before normalisation; Renilla control light: higher = more transfected or surviving cells. Active means: 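Strong candidates differ from their plate mean by at least two out of four per-plate statistical tests; weak candidates meet just one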. Meaning of the calls: active = candidate regulator (raises or lowers reporter); inactive = not a candidate.
The deposit covers about 22,000 reagents; shown is an unselected part of those with a known target gene and a result. In the full data, 233 (1.1%) were called active. 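Light values are raw, unnormalised plate reads; the ratio scores behind the reporter calls were not deposited.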 A number with no mark means an inactive call. Not stated in the record: the amount of reagent, the time to read-out, the dose of the treatment.

predicted target | DRSC id | reporter change call, replicate 1 | firefly reporter light, replicate 1 | firefly reporter light, replicate 2 | Renilla control light, replicate 1 | Renilla control light, replicate 2
CG4860 | DRSC15664 | – | 8823 | – | 3802 | –
CG4860 | DRSC21755 | – | 3.24e5 | 3.28e5 | 1.74e5 | 91848
CG12773 | DRSC18580 | – | 2960 | 8025 | 1226 | 1376
mei-W68 | DRSC07649 | – | 3361 | – | 1831 | –
CG10877 | DRSC14274 | – | 16624 | – | 4133 | –
ics | DRSC01878 | – | 18977 | – | 4176 | –
aft | DRSC07576 | – | 9632 | – | 3459 | –
Dek | DRSC07418 | – | 8180 | – | 2610 | –
Vm34Ca | DRSC03475 | – | 3772 | 7872 | 1354 | 1906
CG13545 | DRSC04187 | – | 4017 | 10835 | 979 | 3236
CG9536 | DRSC03254 | – | 7674 | – | 3434 | –
CG4835 | DRSC10452 | – | 1120 | 5516 | 692 | 2412
CG3566 | DRSC18311 | – | 23169 | – | 11754 | –
LKRSDH | DRSC03015 | – | 8316 | – | 4246 | –
eIF3d1 | DRSC16938 | Wg reporter activity raised | 20503 | – | 10562 | –
Ldh | DRSC11198 | – | 1648 | 7424 | 1126 | 2869
RnrL | DRSC03413 | – | 8426 | – | 2836 | –
Dhit | DRSC07411 | – | 14322 | – | 3209 | –
Nup98-96 | DRSC14209 | – | 6709 | 9573 | 1005 | 1179
Nup98-96 | DRSC14210 | – | 9960 | – | 8720 | –
CG14963 | DRSC08422 | – | 4480 | – | 1833 | –
Cap-D2 | DRSC15401 | – | 5056 | 7044 | 1108 | 1779
TTLL1B | DRSC08594 | – | 820 | 7945 | 745 | 2832
Dera | DRSC07207 | – | 15324 | – | 6123 | –
Dera | DRSC21336 | – | 7.22e5 | 7.39e5 | 4.42e5 | 3.04e5
Acp29AB | DRSC01857 | – | 2026 | 8972 | 722 | 3299
ppk18 | DRSC02216 | – | 2105 | 6562 | 899 | 3364
ppk18 | DRSC02217 | – | 2108 | 7171 | 771 | 3312
VhaPPA1-2 | DRSC16176 | – | 15460 | – | 2845 | –
Fkbp39 | DRSC16667 | Wg reporter activity lowered (active) | 2336 | – | 1641 | –
CG30479 | DRSC06735 | – | 4887 | – | 2762 | –
lncRNA:iab4 | DRSC22331 | – | 6.97e5 | 7.53e5 | 2.86e5 | 2.92e5

Called active, among the entries above:
predicted target | DRSC id | reporter change call, replicate 1 | firefly reporter light, replicate 1 | firefly reporter light, replicate 2 | Renilla control light, replicate 1 | Renilla control light, replicate 2
Fkbp39 | DRSC16667 | Wg reporter activity lowered (active) | 2336 | – | 1641 | –

The listing continues.
predicted target | DRSC id | reporter change call, replicate 1 | firefly reporter light, replicate 1 | firefly reporter light, replicate 2 | Renilla control light, replicate 1 | Renilla control light, replicate 2
CG10140 | DRSC09704 | – | 7888 | – | 2950 | –
sw | DRSC20388 | – | 5504 | – | 1509 | –
CG31145 | DRSC13634 | – | 2683 | – | 1255 | –
CG31145 | DRSC14206 | – | 19013 | – | 14492 | –
CG31145 | DRSC14670 | – | 19623 | – | 7989 | –
CG31145 | DRSC14671 | – | 22892 | – | 12857 | –
CG6277 | DRSC16008 | – | 7665 | – | 3168 | –
CG2930 | DRSC17730 | – | 2923 | 5235 | 1127 | 1926
tyf | DRSC18382 | – | 20727 | – | 8880 | –
Mgat2 | DRSC16347 | – | 2713 | 5154 | 1272 | 2180
abo | DRSC02926 | – | 2342 | 3888 | 897 | 2823
SkpB | DRSC07683 | – | 12007 | – | 2860 | –
CG3544 | DRSC00613 | – | 8058 | – | 3616 | –
Polr1B | DRSC00780 | – | 7120 | – | 3564 | –
CG9095 | DRSC20150 | – | 15010 | – | 6818 | –
CG6345 | DRSC16024 | – | 15168 | – | 2971 | –
Rpn13R | DRSC18404 | – | 21555 | – | 8182 | –
Cpr47Ec | DRSC07332 | – | 8908 | – | 2993 | –
fj | DRSC07619 | – | 6321 | – | 2740 | –
CG32106 | DRSC09219 | – | 2727 | – | 1178 | –
CG42795 | DRSC12772 | – | 3856 | – | 2249 | –
CG42795 | DRSC15533 | – | 12384 | – | 3236 | –
CG12971 | DRSC11681 | – | 15812 | – | 4565 | –
Pop2 | DRSC10537 | – | 7633 | – | 2274 | –
Cyp6a21 | DRSC07381 | – | 8544 | – | 3319 | –
CG15262 | DRSC01975 | – | 3061 | 4929 | 1331 | 2268
CG11791 | DRSC14391 | – | 3067 | 6375 | 1395 | 1924
CG42540 | DRSC08327 | Wg reporter activity raised (active) | 12259 | – | 1122 | –
CG42540 | DRSC08328 | – | 954 | 6022 | 717 | 2060
CG42540 | DRSC08593 | Wg reporter activity raised | 6605 | 1467 | 667 | 285
cdi | DRSC16922 | – | 2354 | 7495 | 736 | 2389
Stt3B | DRSC16781 | – | 23617 | – | 14501 | –
CG5767 | DRSC06953 | – | 7197 | – | 2435 | –
CG13251 | DRSC11699 | – | 11319 | – | 4113 | –
CG17593 | DRSC00504 | – | 2513 | 6497 | 1236 | 1973
CG10474 | DRSC05993 | – | 4423 | – | 1693 | –
Lrrk | DRSC15816 | – | 20267 | – | 6448 | –
Lrrk | DRSC21971 | – | 8.02e5 | 8.23e5 | 4.73e5 | 4.60e5
Paip1 | DRSC07302 | – | 11581 | – | 2699 | –
CG10513 | DRSC14248 | – | 4091 | 7385 | 1413 | 1056
RpS18 | DRSC07540 | – | 3241 | – | 1746 | –
